Measured values published in PMC10230156.
Results are given in words; binding and its absence hold for the method and conditions named. In cells and extracts the contact can be indirect. Some results given as binding are weak or reduced against the parent protein; the word gives no strength. Sequences can lack the tags named with a protein.

Sequences of proteins named here, by UniProt entry; tags and fusion partners are left off. Residues count along the entry.
UniProt P12314, residues 16-374: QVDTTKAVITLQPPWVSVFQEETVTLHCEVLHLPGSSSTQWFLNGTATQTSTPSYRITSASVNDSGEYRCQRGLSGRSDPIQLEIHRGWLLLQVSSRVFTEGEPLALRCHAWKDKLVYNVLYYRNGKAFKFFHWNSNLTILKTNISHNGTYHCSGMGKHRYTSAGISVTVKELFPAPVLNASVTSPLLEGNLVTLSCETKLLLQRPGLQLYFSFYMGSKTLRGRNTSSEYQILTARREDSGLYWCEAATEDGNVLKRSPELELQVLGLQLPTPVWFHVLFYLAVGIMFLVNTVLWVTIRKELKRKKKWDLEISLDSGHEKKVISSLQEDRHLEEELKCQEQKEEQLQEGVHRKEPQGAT

Biological target: T1, Histidine‐rich glycoprotein (His-HRG) (UniProt P04196)
T1 sequence: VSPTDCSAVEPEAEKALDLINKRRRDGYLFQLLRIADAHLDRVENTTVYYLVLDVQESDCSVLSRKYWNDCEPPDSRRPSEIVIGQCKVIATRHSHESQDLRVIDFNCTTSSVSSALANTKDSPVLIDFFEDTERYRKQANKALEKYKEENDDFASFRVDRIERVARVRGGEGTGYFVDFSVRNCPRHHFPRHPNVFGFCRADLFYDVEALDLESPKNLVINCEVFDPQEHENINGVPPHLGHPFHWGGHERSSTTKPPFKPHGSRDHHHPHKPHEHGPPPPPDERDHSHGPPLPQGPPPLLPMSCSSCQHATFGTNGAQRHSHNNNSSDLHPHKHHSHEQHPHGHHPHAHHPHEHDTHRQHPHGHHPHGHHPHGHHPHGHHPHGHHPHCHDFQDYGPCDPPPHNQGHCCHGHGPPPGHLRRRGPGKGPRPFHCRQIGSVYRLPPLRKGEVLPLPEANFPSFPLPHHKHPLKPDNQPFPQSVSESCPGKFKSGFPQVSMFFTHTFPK
Assay: pull-down; His-pulldown of His-HRG with human neutrophil membrane proteins; FCγR1 detected; only the target purified

- binding: binds
Substance: FCγR1 of the human neutrophil membrane (from UniProt P12314 16-374) (receptor)
